According to paper PMC6292963:
Results are given in words; binding and its absence hold for the method and conditions named. Binding seen in cells or lysates may run through a third protein. Some results given as binding are weak or reduced against the parent protein; the word gives no strength.

T1: starch synthase I (rice, japonica (endogenous in developing seeds)) (UniProt Q0DEC8)
T1 sequence: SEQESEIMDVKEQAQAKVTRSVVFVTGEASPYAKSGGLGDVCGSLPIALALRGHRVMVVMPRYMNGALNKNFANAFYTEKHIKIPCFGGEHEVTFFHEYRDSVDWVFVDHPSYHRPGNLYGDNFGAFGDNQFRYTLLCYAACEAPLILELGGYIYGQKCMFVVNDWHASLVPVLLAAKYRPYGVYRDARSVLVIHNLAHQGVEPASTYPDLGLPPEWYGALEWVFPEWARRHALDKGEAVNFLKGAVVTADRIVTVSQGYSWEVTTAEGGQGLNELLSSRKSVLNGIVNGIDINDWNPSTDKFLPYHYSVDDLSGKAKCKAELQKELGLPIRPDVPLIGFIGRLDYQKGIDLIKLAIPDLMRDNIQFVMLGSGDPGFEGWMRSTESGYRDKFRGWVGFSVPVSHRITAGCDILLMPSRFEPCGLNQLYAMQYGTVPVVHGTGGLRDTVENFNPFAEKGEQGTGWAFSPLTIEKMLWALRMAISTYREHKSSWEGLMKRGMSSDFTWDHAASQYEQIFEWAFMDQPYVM

T2: starch synthase IIa (rice, japonica (endogenous in developing seeds)) (UniProt Q0DDE3)
T2 sequence: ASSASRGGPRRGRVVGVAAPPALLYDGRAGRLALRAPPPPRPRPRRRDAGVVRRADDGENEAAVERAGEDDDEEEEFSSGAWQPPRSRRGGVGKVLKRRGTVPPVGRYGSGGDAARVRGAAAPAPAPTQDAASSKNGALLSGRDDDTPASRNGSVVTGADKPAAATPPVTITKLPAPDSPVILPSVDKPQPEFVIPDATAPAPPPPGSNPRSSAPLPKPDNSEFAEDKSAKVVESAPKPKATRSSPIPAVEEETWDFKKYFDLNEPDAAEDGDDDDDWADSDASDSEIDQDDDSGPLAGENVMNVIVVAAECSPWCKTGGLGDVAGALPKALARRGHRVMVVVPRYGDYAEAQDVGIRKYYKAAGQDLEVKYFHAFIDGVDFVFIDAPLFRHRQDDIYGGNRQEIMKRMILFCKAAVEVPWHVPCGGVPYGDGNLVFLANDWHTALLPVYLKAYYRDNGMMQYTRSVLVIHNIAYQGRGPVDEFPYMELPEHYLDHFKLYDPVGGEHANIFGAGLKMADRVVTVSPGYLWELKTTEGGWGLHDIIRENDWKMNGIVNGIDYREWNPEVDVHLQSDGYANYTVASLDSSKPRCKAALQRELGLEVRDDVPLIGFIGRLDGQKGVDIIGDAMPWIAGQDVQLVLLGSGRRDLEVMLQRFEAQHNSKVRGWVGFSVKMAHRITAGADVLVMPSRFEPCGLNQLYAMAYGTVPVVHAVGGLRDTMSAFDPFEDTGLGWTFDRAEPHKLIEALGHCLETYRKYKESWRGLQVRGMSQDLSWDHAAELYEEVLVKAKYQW


What was measured:
[1] = biological target: T1, starch synthase I (rice, japonica (endogenous in developing seeds)); assay: co-IP; soluble proteins from developing rice seeds (wild types Nip, Kin, Akt; mutant lines ss1, EM10 and #1411) extracted in 10 mM Hepes-KOH pH 7.5, 100 mM NaCl, protease inhibitor; incubated with isozyme-specific antibodies and protein A sepharose; extensive washing; captured proteins detected by western blotting; control with pre-immune sera
[2] = biological target: T2, starch synthase IIa (rice, japonica (endogenous in developing seeds)); assay: as above

binding [1]	binding [2]	Binder
binds	–	starch synthase IIa (enzyme, UniProt Q0DDE3 17-810) ASSASRGGPRRGRVVGVAAPPALLYDGRAGRLALRAPPPPRPRPRRRDAGVVRRADDGENEAAVERAGEDDDEEEEFSSGAWQPPRSRRGGVGKVLKRRGTVPPVGRYGSGGDAARVRGAAAPAPAPTQDAASSKNGALLSGRDDDTPASRNGSVVTGADKPAAATPPVTITKLPAPDSPVILPSVDKPQPEFVIPDATAPAPPPPGSNPRSSAPLPKPDNSEFAEDKSAKVVESAPKPKATRSSPIPAVEEETWDFKKYFDLNEPDAAEDGDDDDDWADSDASDSEIDQDDDSGPLAGENVMNVIVVAAECSPWCKTGGLGDVAGALPKALARRGHRVMVVVPRYGDYAEAQDVGIRKYYKAAGQDLEVKYFHAFIDGVDFVFIDAPLFRHRQDDIYGGNRQEIMKRMILFCKAAVEVPWHVPCGGVPYGDGNLVFLANDWHTALLPVYLKAYYRDNGMMQYTRSVLVIHNIAYQGRGPVDEFPYMELPEHYLDHFKLYDPVGGEHANIFGAGLKMADRVVTVSPGYLWELKTTEGGWGLHDIIRENDWKMNGIVNGIDYREWNPEVDVHLQSDGYANYTVASLDSSKPRCKAALQRELGLEVRDDVPLIGFIGRLDGQKGVDIIGDAMPWIAGQDVQLVLLGSGRRDLEVMLQRFEAQHNSKVRGWVGFSVKMAHRITAGADVLVMPSRFEPCGLNQLYAMAYGTVPVVHAVGGLRDTMSAFDPFEDTGLGWTFDRAEPHKLIEALGHCLETYRKYKESWRGLQVRGMSQDLSWDHAAELYEEVLVKAKYQW
binds	binds	starch branching enzyme I (enzyme, UniProt Q01401 65-820) TMVTVVEEVDHLPIYDLDPKLEEFKDHFNYRIKRYLDQKCLIEKHEGGLEEFSKGYLKFGINTVDGATIYREWAPAAQEAQLIGEFNNWNGAKHKMEKDKFGIWSIKISHVNGKPAIPHNSKVKFRFRHGGGAWVDRIPAWIRYATFDASKFGAPYDGVHWDPPACERYVFKHPRPPKPDAPRIYEAHVGMSGEEPEVSTYREFADNVLPRIRANNYNTVQLMAIMEHSYYASFGYHVTNFFAVSSRSGTPEDLKYLVDKAHSLGLRVLMDVVHSHASNNVTDGLNGYDVGQNTHESYFHTGDRGYHKLWDSRLFNYANWEVLRFLLSNLRYWMDEFMFDGFRFDGVTSMLYHHHGINKGFTGNYKEYFSLDTDVDAIVYMMLANHLMHKLLPEATIVAEDVSGMPVLCRPVDEGGVGFDFRLAMAIPDRWIDYLKNKEDRKWSMSEIVQTLTNRRYTEKCIAYAESHDQSIVGDKTIAFLLMDKEMYTGMSDLQPASPTINRGIALQKMIHFITMALGGDGYLNFMGNEFGHPEWIDFPREGNNWSYDKCRRQWSLVDTDHLRYKYMNAFDQAMNALEEEFSFLSSSKQIVSDMNEKDKVIVFERGDLVFVFNFHPNKTYKGYKVGCDLPGKYRVALDSDALVFGGHGRVGHDVDHFTSPEGMPGVPETNFNNRPNSFKVLSPPRTCVAYYRVDEDREELRRGGAVASGKIVTEYIDVEATSGETISGGWKGSEKDDCGKKGMKFVFRSSDEDCK
